Laboratory results reported in PubChem BioAssay AID1439 (NMMLSC, 2008).
Out of some 220,000 compounds screened, about 770 (0.35%) were called active. This list was built around the results that the source calls inconclusive (neither active nor inactive); the mix of calls is not that of the screen. Cut-off read from the data, not from the text of the source: active = binding response below about 49% or above about 150%; inconclusive = no clear call, values can overlap the other calls; inactive = in between.

The chains behind the UniProt entries cited, without tags or fusion partners.
UniProt P09471, whole entry, looked up: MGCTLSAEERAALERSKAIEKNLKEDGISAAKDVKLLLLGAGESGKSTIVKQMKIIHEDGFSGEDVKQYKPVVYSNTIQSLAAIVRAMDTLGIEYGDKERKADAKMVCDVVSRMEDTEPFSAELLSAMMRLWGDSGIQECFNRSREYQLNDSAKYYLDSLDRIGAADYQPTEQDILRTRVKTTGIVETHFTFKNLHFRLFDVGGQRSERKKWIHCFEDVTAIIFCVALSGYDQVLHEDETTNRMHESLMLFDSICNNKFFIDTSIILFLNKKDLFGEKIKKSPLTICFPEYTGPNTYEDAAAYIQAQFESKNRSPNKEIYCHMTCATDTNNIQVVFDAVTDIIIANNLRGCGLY

Each compound was assayed against Guanine nucleotide-binding protein G(o) subunit alpha (Homo sapiens) (UniProt P09471) (assay: RGS7-Galphao binding modulators, primary screen, biochemical, multiplexed bead flow cytometry (AID 1439;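 note: fluorescent Galphao held in activated GDP-AlF4 state binding bead-coupled RGS7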)). Settings: at 10 µM, actives lie on both sides.
For `CC1CCC2(CC1)NC(=O)N(CC(=O)Nc1cccc(S(=O)(=O)N3CCOCC3)c1)C2=O` (stereo unspecified), the binding response (% of control) was inconclusive: 131%. In the case of `COc1ccc(N(CC2CO2)S(=O)(=O)c2ccccc2)cc1` (stereo unspecified), the binding response (% of control) is reported as inactive: 98%. `CC12CC3CC(C)(C1)CC(C(=O)NCc1ccco1)(C3)C2` was tested, and the binding response (% of control) was inconclusive: 84.8%. In the case of `Cc1cc(C(=O)NCc2ccccc2Cl)n(-c2ccccc2)n1`, the binding response (% of control) is reported as inconclusive: 193%. `CCOC(=O)c1ccc(NC(=O)CSC(=S)N2CCOCC2)cc1` was tested, and the binding response (% of control) was inactive: 102%. For `O=C(NCCc1cccs1)C1CC(c2ccccc2F)=NO1` (stereo unspecified), the binding response (% of control) was inconclusive: 95.1%. For `O=c1c2ccccc2nc(/C=C/c2cccnc2)n1CCc1ccccc1`, the binding response (% of control) was inconclusive: 104%. `CNC(=S)N/N=C/c1ccccc1OCC(=O)O` was tested, and the binding response (% of control) was inconclusive: 91.3%. In the case of `Cc1nn(-c2ccccc2)c(C)c1/C=N/n1cnnc1`, the binding response (% of control) is reported as inactive: 97.3%. For `CCOC(=O)C(NC(C)=O)(NC(C)C)C(F)(F)F` (stereo unspecified), the binding response (% of control) was inconclusive: 86.9%. For `C/C=C\C(=O)Nc1cccc(C2=NOC3(C2)C[C@H](C(N)=O)N(C(=O)/C=C/CC)C3)c1` (stereo partly specified), the binding response (% of control) was inconclusive: 120%. With `NNc1nc2sc3c(c2c(=O)n1C1CCCCC1)CCN(Cc1ccccc1)C3` the binding response (% of control) was inconclusive: 47.3%. `COc1ccccc1NC(=O)Cn1cc(C(=O)c2ccco2)c2ccccc21` was tested, and the binding response (% of control) was inconclusive: 77.8%. With `COC(=O)c1ccccc1NC(=O)COC(=O)[C@H](C)NC(N)=O` the binding response (% of control) was inconclusive: 111%. With `COC(=O)c1sccc1NC(=O)COc1cccc(C)c1` the binding response (% of control) was inconclusive: 110%. With `CC(C)Sc1snnc1-c1ccccc1` the binding response (% of control) was inconclusive: 98.6%. For `CN(C(=O)C(Cl)Cl)C1CC2C=CC1C2` (stereo unspecified), the binding response (% of control) was inconclusive: 116%. In the case of `CCOc1ccc(CSC(=N)N)cc1Cl`, the binding response (% of control) is reported as inconclusive: 114%. For `CC1Cc2ccccc2N1C(=O)CCn1c(=O)sc2ccccc21` (stereo unspecified), the binding response (% of control) was inconclusive: 110%. With `Cc1ccc(C)n1CCN1CCN(C(=O)CC#N)CC1` the binding response (% of control) was inconclusive: 114%. In the case of `O=C(CCC(=O)OCC(=O)c1ccc(C(F)(F)F)cc1)OCC(=O)c1ccc(C(F)(F)F)cc1`, the binding response (% of control) is reported as inconclusive: 104%. For `CCCCCc1cc(=O)oc2c(C(CCN3CCCC(C)C3)c3ccc4c(c3)OCO4)c(OC)cc(OC)c12` (stereo unspecified), the binding response (% of control) was inconclusive: 107%. In the case of `COc1cc(NC2c3ccccc3C(=O)N2Cc2ccccc2)cc(OC)c1OC` (stereo unspecified), the binding response (% of control) is reported as inconclusive: 173%. In the case of `COc1cc(NC(C)=O)c2ncccc2c1NC(C)=O`, the binding response (% of control) is reported as inconclusive: 108%. With `O=[N+]([O-])c1ccc(-c2cn3c(n2)CCC3)cc1` the binding response (% of control) was inconclusive: -76.5%. With `Cc1nnsc1SCCNC(=O)Nc1ccc(Cl)cc1` the binding response (% of control) was inconclusive: 97.6%.
